This assay concerns the target T1, MBP-tagged Rab11B (full-length, wild type) (Toxoplasma gondii) (UniProt Q7Z158).
T1 sequence: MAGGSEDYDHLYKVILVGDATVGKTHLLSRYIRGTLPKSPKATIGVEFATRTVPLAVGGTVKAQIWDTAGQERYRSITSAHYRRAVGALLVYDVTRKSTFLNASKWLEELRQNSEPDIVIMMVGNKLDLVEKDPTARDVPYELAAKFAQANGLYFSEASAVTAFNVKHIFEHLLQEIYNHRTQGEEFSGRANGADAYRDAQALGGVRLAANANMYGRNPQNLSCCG
As to the kind of experiment: pull-down; 4 µg MBP-Rab or MBP-Rab^QL held on 20 µL MBP agarose resin as bait (MBP protein binding buffer with 1 mM DTT, 1 mM PMSF, 4 °C, 2 h); 4 µg his-TBC9 or his-TBC9^R74A in 500 µL his protein binding buffer, 4 °C, 2 h; washes with 0.1% Triton X-100; Western blot with anti-His and anti-MBP; both purified.

Results are given in words; binding and its absence hold for the method and conditions named. Tags and fused reporters may be left off the sequences shown.

Regarding “His-tagged TBC9 (full-length, wild type) (Toxoplasma gondii)”, the binding entry is recorded as “no binding (tested: 4 µg his-TBC9 in 500 µL)”.

For the origin of these results see article PMC11102469.
